Data taken from paper PMC3639266.
Results are given in words; binding and its absence hold for the method and conditions named. Some entries that bind do so weakly or less than the wild type.

Chains of the proteins cited; added tags and fusions are not shown.
UniProt P84077: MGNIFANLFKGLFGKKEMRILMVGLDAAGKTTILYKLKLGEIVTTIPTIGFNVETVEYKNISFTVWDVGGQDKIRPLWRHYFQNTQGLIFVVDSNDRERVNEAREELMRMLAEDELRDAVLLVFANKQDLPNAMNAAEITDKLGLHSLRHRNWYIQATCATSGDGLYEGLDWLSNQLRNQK

What was measured:
Arf1 [1] = target: Arf1 (UniProt P84077); assay: confocal fluorescence microscopy of GUVs and kinesin-pulled membrane tubes; Golgi-mix GUVs and tube networks incubated with 1 to 3 µM Arfaptin2-Alexa^488 and 1 to 3 µM Arf1 bound to GTPγS (or GDP as control); Arfaptin2 fluorescence on membranes; both purified
Arf1 [2] = target: Arf1 (UniProt P84077); assay: liposome flotation on sucrose gradient; Proteins 0.75 µM each and Golgi-mix LUVs 0.75 mM lipids (extruded 200, 100, 50, 30 nm) in HKM buffer, room temperature, 20 min; Arf1 loaded with GTP (or GDP as control); top and bottom fractions analysed by SDS-PAGE (Alexa^488 fluorescence, Sypro orange); both purified
[3] = target: myristoylated Arf1 tagged with hexa-histidine (UniProt P84077); assay: FRET or BRET; FRET between Arfaptin2-Alexa^488 (0.5 µM) and TRITC-DHPE (1 mol%) in Golgi-mix LUVs (0.5 mM) with 0.5 µM myr-Arf1-H6, HKM buffer, cuvette; GTP 0.1 mM, EDTA 2 mM, MgCl2 2 mM, then ArfGAP1 10 nM added in turn; the signal reports Arfaptin2 on the membrane after Arf1 activation and reverses after ArfGAP1; both purified

Measured: binding

B1: Arfaptin2 labelled with Alexa^488 (protein, UniProt P53365 1-341)
chain: MTDGILGKAATMEIPIHGNGEARQLPEDDGLEQDLQQVMVSGPNLNETSIVSGGYGGSGDGLIPTGSGRHPSHSTTPSGPGDEVARGIAGEKFDIVKKWGINTYKCTKQLLSERFGRGSRTVDLELELQIELLRETKRKYESVLQLGRALTAHLYSLLQTQHALGDAFADLSQKSPELQEEFGYNAETQKLLCKNGETLLGAVNFFVSSINTLVTKTMEDTLMTVKQYEAARLEYDAYRTDLEELSLGPRDAGTRGRLESAQATFQAHRDKYEKLRGDVAIKLKFLEENKIKVMHKQLLLFHNAVSAYFAGNQKQLEQTLQQFNIKLRPPGAEKPSWLEEQ
modifications: Alexa^488 label (Alexa^488-C5-Maleimide), dye/protein ratio around 2
binds: all assays above
